Only a part is listed here, and it is no random draw. For part of these data: At the low end of the ranking the order means little. This is one part of the list. For part of these data: The source does not settle which construct or isoform was used.
molecular target: T1, ETV4 (UniProt P43268); assay: DAPPL (digital affinity profiling via proximity ligation, sequencing); settings: 10 mM Tris-HCl pH 7.5, 50 mM NaCl, 1 mM DTT, 4% glycerol, room temperature, 30 min; GST-TFs on glutathione beads, 16-mer random dsDNA library, 0.1% …; high values mean tight binding; double strand, one strand shown; scale: fold enrichment (6-mer frequency, TF over GST control)
T1 sequence: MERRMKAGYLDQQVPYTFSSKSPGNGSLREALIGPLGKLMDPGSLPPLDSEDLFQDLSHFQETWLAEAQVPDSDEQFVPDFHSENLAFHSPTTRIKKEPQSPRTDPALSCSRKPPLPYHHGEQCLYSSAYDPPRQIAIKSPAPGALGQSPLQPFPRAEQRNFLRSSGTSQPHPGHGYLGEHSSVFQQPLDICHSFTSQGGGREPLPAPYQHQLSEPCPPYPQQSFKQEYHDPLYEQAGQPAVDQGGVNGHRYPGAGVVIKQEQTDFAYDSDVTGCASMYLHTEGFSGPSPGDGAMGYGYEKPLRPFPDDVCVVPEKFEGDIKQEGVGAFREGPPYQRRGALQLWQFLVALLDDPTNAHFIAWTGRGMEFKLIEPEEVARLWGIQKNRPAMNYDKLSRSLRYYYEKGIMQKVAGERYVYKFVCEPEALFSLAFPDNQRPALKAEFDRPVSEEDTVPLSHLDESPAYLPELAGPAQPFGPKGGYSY

Sequences of proteins named here, by UniProt entry; tags and fusion partners are left off. A change or cut given only in a name is not applied to a line headed by its entry.
UniProt P50549: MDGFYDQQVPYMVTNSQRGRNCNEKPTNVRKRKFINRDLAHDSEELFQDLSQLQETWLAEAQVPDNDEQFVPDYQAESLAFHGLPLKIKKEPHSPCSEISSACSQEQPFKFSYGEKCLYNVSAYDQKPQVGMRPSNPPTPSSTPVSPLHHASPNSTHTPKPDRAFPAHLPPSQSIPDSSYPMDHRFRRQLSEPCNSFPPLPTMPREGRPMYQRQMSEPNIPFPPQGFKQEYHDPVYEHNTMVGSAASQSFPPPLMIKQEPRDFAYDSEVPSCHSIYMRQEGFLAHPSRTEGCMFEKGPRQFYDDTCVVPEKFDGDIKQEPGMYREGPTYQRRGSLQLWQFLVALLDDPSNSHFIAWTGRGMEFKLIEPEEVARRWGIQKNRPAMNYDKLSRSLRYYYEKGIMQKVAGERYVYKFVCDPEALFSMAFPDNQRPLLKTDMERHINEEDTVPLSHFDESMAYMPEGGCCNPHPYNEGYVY

| Sequence | binding signal |
| --- | --- |
| TGCATG | 1.08 |
| GAAACT | 1.16 |
| CTGAAA | 1.22 |
| CATGCG | 0.992 |
| GGTATC | 1.03 |
| CGTCAC | 1.25 |
| AATTAA | 1.23 |
| CGCCAT | 1.02 |
| CCCCGA | 1.16 |
| TTTGTG | 1.12 |
| ATGAAC | 1.28 |
| ACATGT | 1.09 |
| ATGCCC | 1.27 |
| CATGGG | 1.02 |
| AACGAT | 1.18 |
| ACGCTC | 1.04 |
| GCTGGC | 1.07 |
| GACATT | 1.15 |
| TGGGTT | 1.06 |
| CCGCTC | 1.42 |

| Sequence | binding signal |
| --- | --- |
| CAATAC | 1.24 |
| CACTAG | 1.06 |
| AGCACA | 1.07 |
| GTTAAG | 1.02 |
| ACTAGG | 1.02 |
| GTTAAT | 1.14 |
| TCTCCT | 1.55 |
| CGCGGC | 1.09 |
| TCAACG | 1.14 |
| TTACAG | 1.16 |
| GAAACA | 1.31 |
| TTTCGG | 1.15 |
| CTGCGC | 1.45 |
| GGTCTA | 1.22 |
| TTTTCT | 1.38 |
| CACCCG | 1.2 |
| GCACTA | 1.22 |
| GTTGCG | 1.05 |
| GGTACT | 1.36 |
| ACGTAT | 1.16 |

molecular target: ETV1 (UniProt P50549); assay: as above; settings: 10 mM Tris-HCl pH 7.5, 50 mM NaCl, 1 mM DTT, 4% glycerol, room temperature, 30 min; GST-TFs on glutathione beads, 16-mer random dsDNA library, 0.1% …; high values mean tight binding; double strand, one strand shown; scale: fold enrichment (6-mer frequency, TF over GST control)

| Sequence | binding signal |
| --- | --- |
| TGCATG | 1.06 |
| GAAACT | 1.27 |
| CTGAAA | 1.1 |
| CATGCG | 0.946 |
| GGTATC | 1.1 |
| CGTCAC | 1.2 |
| AATTAA | 1.26 |
| CGCCAT | 0.98 |
| CCCCGA | 0.98 |
| TTTGTG | 1.1 |
| ATGAAC | 1.38 |
| ACATGT | 1.09 |
| ATGCCC | 1.31 |
| CATGGG | 0.952 |
| AACGAT | 1.19 |
| ACGCTC | 0.948 |
| GCTGGC | 0.976 |
| GACATT | 1.26 |
| TGGGTT | 0.964 |
| CCGCTC | 1.45 |

| Sequence | binding signal |
| --- | --- |
| CAATAC | 1.3 |
| CACTAG | 0.915 |
| AGCACA | 1.02 |
| GTTAAG | 0.936 |
| ACTAGG | 0.951 |
| GTTAAT | 1 |
| TCTCCT | 1.49 |
| CGCGGC | 0.963 |
| TCAACG | 1.15 |
| TTACAG | 1.2 |
| GAAACA | 1.26 |
| TTTCGG | 1.31 |
| CTGCGC | 1.58 |
| GGTCTA | 1.05 |
| TTTTCT | 1.21 |
| CACCCG | 1.14 |
| GCACTA | 1.15 |
| GTTGCG | 0.991 |
| GGTACT | 1.26 |
| ACGTAT | 1.32 |

molecular target: T2, ERF (UniProt P50548); assay: as above; settings: 10 mM Tris-HCl pH 7.5, 50 mM NaCl, 1 mM DTT, 4% glycerol, room temperature, 30 min; GST-TFs on glutathione beads, 16-mer random dsDNA library, 0.1% …; high values mean tight binding; double strand, one strand shown; scale: fold enrichment (6-mer frequency, TF over GST control)
T2 sequence: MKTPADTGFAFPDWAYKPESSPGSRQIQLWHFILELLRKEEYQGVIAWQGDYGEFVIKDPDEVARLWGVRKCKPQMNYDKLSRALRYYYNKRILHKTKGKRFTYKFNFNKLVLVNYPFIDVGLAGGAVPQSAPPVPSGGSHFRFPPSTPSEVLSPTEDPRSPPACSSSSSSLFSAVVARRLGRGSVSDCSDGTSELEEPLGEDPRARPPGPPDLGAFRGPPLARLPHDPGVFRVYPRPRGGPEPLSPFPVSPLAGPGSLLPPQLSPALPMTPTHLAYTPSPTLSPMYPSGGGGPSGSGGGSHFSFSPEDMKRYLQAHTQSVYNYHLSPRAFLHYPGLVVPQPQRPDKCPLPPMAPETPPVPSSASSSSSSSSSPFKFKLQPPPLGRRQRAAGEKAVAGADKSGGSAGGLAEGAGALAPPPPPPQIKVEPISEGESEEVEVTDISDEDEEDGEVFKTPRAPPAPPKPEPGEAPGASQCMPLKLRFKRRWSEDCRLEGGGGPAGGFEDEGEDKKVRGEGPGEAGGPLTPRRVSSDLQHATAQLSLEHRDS

| Sequence | binding signal |
| --- | --- |
| TGCATG | 1.06 |
| GAAACT | 1.03 |
| CTGAAA | 1.09 |
| CATGCG | 0.993 |
| GGTATC | 0.997 |
| CGTCAC | 1.15 |
| AATTAA | 1.31 |
| CGCCAT | 1.08 |
| CCCCGA | 1.15 |
| ATGAAC | 1.26 |
| ACATGT | 1.15 |
| ATGCCC | 1.31 |
| AACGAT | 1.29 |
| ACGCTC | 0.998 |
| GACATT | 1.22 |
| TGGGTT | 0.983 |
| CCGCTC | 1.66 |

| Sequence | binding signal |
| --- | --- |
| CAATAC | 1.38 |
| CACTAG | 0.978 |
| AGCACA | 1.13 |
| GTTAAG | 1.03 |
| ACTAGG | 0.92 |
| GTTAAT | 0.999 |
| TCTCCT | 1.34 |
| CGCGGC | 0.981 |
| TCAACG | 0.995 |
| GAAACA | 1.34 |
| TTTCGG | 1.17 |
| CTGCGC | 1.34 |
| TTTTCT | 1.36 |
| CACCCG | 1.25 |
| GCACTA | 1.19 |
| GTTGCG | 1.14 |
| GGTACT | 1.38 |

Source: paper PMC7862700
